# Measurements taken from PubChem BioAssay AID504467 (National Center for Advancing Translational Sciences (NCATS), 2011).
# Hit rate of the full screen: of about 330,000 compounds, about 7,700 (2.3%) were called active. This list was built around the results that the source calls inconclusive (neither active nor inactive); the mix of calls is not that of the screen. Calls come from the whole dose curve; as a rule, active = well fitted inhibition curve with a large enough effect; inconclusive = small, poorly fitted or top-dose-only effect, or effect the other way; inactive = flat fitted curve, though single readings scatter. Where the call is inconclusive, the potency comes from a doubtful curve fit.
# Experiment: qHTS screen for small molecules that inhibit ELG1-dependent DNA repair in human embryonic kidney (HEK293T) cells expressing luciferase-tagged ELG1; note: nearly all actives have a fitted effect of over 55% in size
# Settings: HEK293T ELG1-luciferase reporter, luminescence, 16 h, DNA damage induced by 5-fluorouridine; series mostly up to 46.1 µM
# In short: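 In this reporter screen, reduction of luminescence relative to DMSO vehicle indicated activity. Compounds and 5-fluorouridine were added together to 2,000 cells per well, incubated for 16 hr at 37 °C, then developed with ONE-Glo.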
# Potency is the fitted concentration of half-maximal effect.
row,Structure (SMILES),Potency
1,CCCCCCN1C2=NCCN2c2ccccc21,inactive
2,CCN(C(=O)C1CCCN(c2ncnc3c2nc2n3CCCCC2)C1)c1cccc(Cl)c1 (stereo not given),active: 20.6 µM
3,Cc1cc(C)n(Cc2n[nH]c(=S)n2Cc2ccccc2)n1,inactive
4,O=C(Nc1cccc(F)c1)c1cc(S(=O)(=O)N2CCOCC2)cs1,"inconclusive: 23.1 µM [inhibitor, partial curve, poor fit]"
5,O=C(OCC(=O)N1CCc2ccccc21)c1cccnc1,inactive
6,COCCCNC(=O)Cn1cnc2sc(C)c(S(=O)(=O)N3CC(C)CC(C)C3)c2c1=O (stereo not given),inactive
7,COc1ccc(Br)cc1CN(C)CC(=O)NCCc1ccc(S(N)(=O)=O)cc1,"inconclusive: 29.1 µM [inhibitor, single point]"
8,CCOC(=O)N1CCN(C(=O)Cc2ccsc2)CC1,"inconclusive: 1.58 µM [inhibitor, partial curve, poor fit]"
9,COc1cc(OC)cc(C(=O)NCCOc2ccccc2)c1,"inconclusive: 18.4 µM [activator, partial curve]"
10,S=C(c1ccc(-c2ccc(Br)cc2)o1)N1CCOCC1,"inconclusive: 16.4 µM [activator, partial curve]"
11,Cc1ccc(S(=O)(=O)NC(=O)c2cc(C)n(-c3cc(S(=O)(=O)N4CCOCC4)ccc3N3CCCC3)c2C)cc1,"inconclusive: 20.6 µM [activator, single point]"
12,NC(=O)c1ccc(NC(=O)c2ccc(CN3CCOCC3)cc2)cc1,"inconclusive: 29.1 µM [activator, single point]"
13,Cc1ccc(C2C(C(=O)c3cc4ccccc4o3)=C(O)C(=O)N2CCN2CCOCC2)cc1 (stereo not given),inactive
14,CCOC(=O)C1=C(COC(=O)CNC(=O)c2cccc(C)c2)NC(=O)NC1C (stereo not given),"inconclusive: 6.51 µM [activator, single point]"
15,COc1ccc2[nH]c(C(=O)O)c(NC(=O)c3ccccc3[N+](=O)[O-])c2c1,inactive
16,O=c1c2c(nc3cc(-c4cccc(Cl)c4)[nH]n13)CCC2,"inconclusive: 9.2 µM [activator, partial curve]"
17,COc1ccc(OC)c(C(=O)c2ccc(C(=O)Nc3cccc4ccccc34)cc2)c1,"inconclusive: 4.61 µM [inhibitor, partial curve, poor fit]"
18,CC(=O)Nc1sc(-c2ccccc2)nc1-c1ccccc1,"inconclusive: 6.51 µM [activator, single point]"
19,O=C(CSCc1ccc(F)cc1)Nc1ccc(N2CCOCC2)cc1N1CCOCC1,"inconclusive: 14.1 µM [inhibitor, single point]"
20,COc1ccc(NC(=O)N(C)C[C@H]2Oc3ccc(NS(=O)(=O)c4c(C)noc4C)cc3C(=O)N([C@H](C)CO)C[C@@H]2C)cc1,inactive
21,Cc1ccc(N(C)S(=O)(=O)c2cccc(C(=O)OCC(=O)N3CCCC(C)C3)c2)cc1 (stereo not given),"inconclusive: 18.3 µM [inhibitor, partial curve, poor fit]"
22,Cc1cc(C(=O)NC(C)C2CC2)c(Cl)cc1Cl (stereo not given),inactive
23,Cc1ccccc1NC(=O)Cn1c(=O)n(CC2CCCO2)c(=O)c2ccccc21 (stereo not given),"inconclusive: 29.1 µM [inhibitor, single point]"

# Structural class: those above with a furan ring, fused or not.
row,Structure (SMILES),Potency
10,S=C(c1ccc(-c2ccc(Br)cc2)o1)N1CCOCC1,"inconclusive: 16.4 µM [activator, partial curve]"
13,Cc1ccc(C2C(C(=O)c3cc4ccccc4o3)=C(O)C(=O)N2CCN2CCOCC2)cc1 (stereo not given),inactive

# Later entries.

row,Structure (SMILES),Potency
1,CCOc1ccc(NC(=O)NC23CC4CC(CC(C4)C2)C3)cc1,"inconclusive: 18.4 µM [activator, single point]"
2,CCCCCN(C(=O)CCC(=O)OCc1cc(C)ccc1C)c1c(N)n(CCCC)c(=O)[nH]c1=O,"inconclusive: 29.1 µM [inhibitor, single point]"
3,CCOc1ccc(CCNC(=O)CCn2ccc3cc(S(=O)(=O)N4CCCC4)ccc32)cc1,"inconclusive: 32.6 µM [inhibitor, single point]"
4,O=C(COC(=O)c1ccccc1C(=O)N1CCN(c2ccccc2)CC1)NCc1ccccc1,"inconclusive: 20.6 µM [inhibitor, partial curve, poor fit]"
5,CC(=O)Nc1cccc(-c2nc3ccc(NC(C)=O)cc3s2)c1,"inconclusive: 2.91 µM [activator, full curve]"
6,CCc1ccc(CNC(=O)CCS(=O)(=O)Cc2ccc(C)cc2)cc1,inactive
7,COc1ccc(NC(=O)CCc2c(C)nn(-c3ccc(N4CCOCC4)nn3)c2C)cc1,"inconclusive: 18.3 µM [activator, single point]"
8,Cc1cc(N/C(=N/S(=O)(=O)c2cc(F)ccc2F)c2ccccc2)n(-c2ccccc2)n1,"inconclusive: 18.3 µM [inhibitor, single point]"
9,CC1CCN(C(=O)CN2C(=O)C(C)(C)Oc3ccc(C(=O)NC(C)C)cc32)CC1,inactive
10,CN1C(=O)C(CC(=O)O)S/C1=N\N=C\c1ccc(O)cc1O (stereo not given),inactive
11,Cc1csc(-c2cnn(-c3ccccc3)c2NC(=O)c2cccc(C(F)(F)F)c2)n1,"inconclusive: 25.9 µM [inhibitor, single point]"
12,FC(F)(F)c1cnc(-c2cnc(-c3ccccn3)nc2)c(Cl)c1,"inconclusive: 4.11 µM [activator, full curve]"
13,NC(N)=Nc1nc2ccc(Cl)cc2c(=O)[nH]1,inactive
14,CCn1c(=NC(=O)CCS(=O)(=O)c2ccccc2)sc2cccc(OC)c21,"inconclusive: 23.1 µM [inhibitor, partial curve, poor fit]"
15,COc1ccc(N2CCN(Cc3nnnn3C3CCCCC3)CC2)cc1,inactive
16,O=C1N(c2ccccc2C(F)(F)F)O[C@@]1(c1ccccc1)C1CCCCC1,"inconclusive: 29.1 µM [inhibitor, single point]"
17,Clc1ccc2[nH]c3c(NCCN4CCOCC4)ncnc3c2c1,inactive
18,O=C(CCC(=O)N1CCOCC1)NCCc1ccccc1,"inconclusive: 13 µM [activator, partial curve, poor fit]"
19,COc1cccc(NC(=O)c2ccccc2NS(C)(=O)=O)c1,inactive
20,CCCCOC(=O)C(C#N)c1nc2ccccc2nc1N1CCOCC1 (stereo not given),active: 20.6 µM
21,Cc1cc(C)nc(/N=C(\N)Nc2ccc3c(c2)OCCO3)n1,inactive
22,CNc1nc(C)c(C(=O)OCc2ccccc2)s1,"inconclusive: 25.9 µM [activator, single point]"
